A unit is not stated for every read-out.
What was measured:
[1] = Serum ethanolamine phospholipid ratios to PtdEt 16:0/18:0 (M01) in human cohorts
[2] = Serum ethanolamine phospholipid levels in human cohorts (dementia severity, post-mortem pathology, age) by flow-injection MS/MS
[3] = serum, females, post mortem SDAT
[4] = serum, females, post mortem control

CCCCC/C=C\C/C=C\CCCCCCCC(=O)OC(COCCCCCCCCCCCCCCCC)COP(=O)(O)OCCN (centres unmarked) [Metabolite M06, Plasmanyl 16:0/18:2]
Ratio of ethanolamine phospholipid ratios to M01 between cohorts ([1]; AD, All to CN, Male): 0.833
Ratio of ethanolamine phospholipid ratios to M01 between cohorts ([1]; ADAS 5-19 to CN, Male): 0.827
Ratio of ethanolamine phospholipid ratios to M01 between cohorts ([1]; ADAS 20-39 to CN, Male): 0.840
Ratio of ethanolamine phospholipid ratios to M01 between cohorts ([1]; ADAS 40-70 to CN, Male): 0.828
Average serum ethanolamine phospholipid ratio to M01, Mean ([1]; Cognitive Normal, Male, serum): 0.255
Average serum ethanolamine phospholipid ratio to M01, Mean ([1]; SDAT, ADAS 5-19, Male, serum): 0.211
Average serum ethanolamine phospholipid ratio to M01, Mean ([1]; SDAT, ADAS 20-39, Male, serum): 0.214
Average serum ethanolamine phospholipid ratio to M01, Mean ([1]; SDAT, ADAS 40-70, Male, serum): 0.211
Average serum ethanolamine phospholipid ratio to M01, Mean ([1]; SDAT_all, Male, serum): 0.213
Ethanolamine Phospholipid Ratio to M01, Mean, Age Ctl, 30-39, Female ([1]; human serum, females aged 30-39): 0.311
Ethanolamine Phospholipid Ratio to M01, Mean, Age Ctl, 40-49, Female ([1]; human serum, females aged 40-49): 0.291
Ethanolamine Phospholipid Ratio to M01, Mean, Age Ctl, 50-59, Female ([1]; human serum, females aged 50-59): 0.261
Ratio of Ethanolamine Phospholipid Ratio to M01, 50-59 vs. 40-49, Female ([1]; human serum, females aged 50-59 vs. females aged 40-49): 0.896
Ethanolamine Phospholipid Ratio to M01, Mean, Age Ctl, 60-69, Female ([1]; human serum, females aged 60-69): 0.193
Ratio of Ethanolamine Phospholipid Ratio to M01, 60-69 vs. 40-49, Female ([1]; human serum, females aged 60-69 vs. females aged 40-49): 0.662
Ethanolamine Phospholipid Ratio to M01, Mean, Age Ctl, 70+_Female ([1]; human serum, females aged 70+): 0.213
Ratio of Ethanolamine Phospholipid Ratio to M01, 70+ vs. 40-49, Female ([1]; human serum, females aged 70+ vs. females aged 40-49): 0.733
Ratio of Ethanolamine Phospholipid Ratio to M01, 50-59 vs. 40-49, Male ([1]; human serum, males aged 50-59 vs. males aged 40-49): 1.041
Ratio of Ethanolamine Phospholipid Ratio to M01, 60-69 vs. 40-49, Male ([1]; human serum, males aged 60-69 vs. males aged 40-49): 0.851
Ratio of Ethanolamine Phospholipid Ratio to M01, 70+ vs. 40-49, Male ([1]; human serum, males aged 70+ vs. males aged 40-49): 0.898
Ratio of ethanolamine phospholipid ratio to M01, ADAS 5-19 to CN, Female ([1]; serum, females, ADAS 5-19 vs cognitive normal): 0.966
Ratio of ethanolamine phospholipid ratio to M01, ADAS 20-39 to 5-19, Female ([1]; serum, females, ADAS 20-39 vs ADAS 5-19): 0.961
Ratio of ethanolamine phospholipid ratio to M01, ADAS 20-39 to CN, Female ([1]; serum, females, ADAS 20-39 vs cognitive normal): 0.928
Ratio of ethanolamine phospholipid ratio to M01, ADAS 40-70 to 5-19, Female ([1]; serum, females, ADAS 40-70 vs ADAS 5-19): 0.797
Ratio of ethanolamine phospholipid ratio to M01, ADAS 40-70 to 20-39, Female ([1]; serum, females, ADAS 40-70 vs ADAS 20-39): 0.830
Ratio of ethanolamine phospholipid ratio to M01, ADAS 40-70 to CN, Female ([1]; serum, females, ADAS 40-70 vs cognitive normal): 0.771
Ethanolamine phospholipid ratio to M01, Mean, SDAT, ADAS 5-19, Female ([1]; serum, females, SDAT ADAS 5-19): 0.226
Ethanolamine phospholipid ratio to M01, Mean, SDAT, ADAS 20-39, Female ([1]; serum, females, SDAT ADAS 20-39): 0.217
Ethanolamine phospholipid ratio to M01, Mean, SDAT, ADAS 40-70, Female ([1]; serum, females, SDAT ADAS 40-70): 0.180
Ratio of ethanolamine phospholipid ratio to M01, AD, All to CN, Female ([1]; serum, females, all AD vs cognitive normal): 0.885
Ethanolamine phospholipid ratio to M01, Mean, SDAT_all Female ([1]; serum, females, all SDAT): 0.207
Ratio of ethanolamine phospholipid ratio to M01, Autopsy AD vs. Control, Female ([1]; serum, females, autopsy AD vs post mortem control): 0.855
Ethanolamine phospholipid ratio to M01, Mean, Cognitive Normal, Female ([1]; serum, females, cognitive normal): 0.234
Ethanolamine phospholipid ratio to M01, Mean, Post Mortem SDAT Female [1, 3]: 0.059
Ethanolamine phospholipid ratio to M01, Mean, Post Mortem Ctl, Female [1, 4]: 0.069
Ratio of ethanolamine phospholipid ratio to M01, ADAS 20-39 to 5-19, Male ([1]; serum, males, SDAT ADAS 20-39 vs ADAS 5-19): 1.016
Ratio of ethanolamine phospholipid ratio to M01, ADAS 40-70 to 5-19, Male ([1]; serum, males, SDAT ADAS 40-70 vs ADAS 5-19): 1.002
Ratio of ethanolamine phospholipid ratio to M01, ADAS 40-70 to 20-39, Male ([1]; serum, males, SDAT ADAS 40-70 vs ADAS 20-39): 0.987
Ethanolamine phospholipid ratio to M01, Mean, Age Ctl, 30-39, Male ([1]; serum, males, age control 30-39): 0.263
Ethanolamine phospholipid ratio to M01, Mean, Age Ctl, 40-49, Male ([1]; serum, males, age control 40-49): 0.234
Ethanolamine phospholipid ratio to M01, Mean, Age Ctl, 50-59, Male ([1]; serum, males, age control 50-59): 0.243
Ethanolamine phospholipid ratio to M01, Mean, Age Ctl, 60-69, Male ([1]; serum, males, age control 60-69): 0.199
Ethanolamine phospholipid ratio to M01, Mean, Age Ctl, 70+_Male ([1]; serum, males, age control 70+): 0.210
Ethanolamine phospholipid ratio to M01, Mean, Post Mortem SDAT Male ([1]; serum, males, post mortem SDAT): 0.046
Ratio of ethanolamine phospholipid ratio to M01, SDAT vs Control (post mortem, males) ([1]; serum, males, post mortem SDAT vs post mortem control): 0.581
Ethanolamine phospholipid ratio to M01, Mean, Post Mortem Ctl, Male ([1]; serum, males, post mortem control): 0.080
Ratio of serum levels ([2]; AD, All to CN, Male): 0.877
Ratio of serum levels ([2]; ADAS 5-19 to CN, Male): 0.855
Ratio of serum levels ([2]; ADAS 20-39 to 5-19, Male): 1.024
Ratio of serum levels ([2]; ADAS 20-39 to CN, Male): 0.876
Ratio of serum levels ([2]; ADAS 40-70 to 5-19, Male): 1.001
Ratio of serum levels ([2]; ADAS 40-70 to 20-39, Male): 0.978
Ratio of serum levels ([2]; ADAS 40-70 to CN, Male): 0.856
Serum level, Mean ([2]; Cognitive Normal, Female): 0.027
Average serum level, Mean ([2]; Cognitive Normal, Male): 0.028
Serum level, Mean ([2]; Post Mortem Ctl, Male): 0.009
Serum level, Mean ([2]; Post Mortem SDAT Male): 0.006
Ratio of serum levels ([2]; Post mortem SDAT vs Control, Male): 0.475
Serum level, Mean ([2]; SDAT, ADAS 5-19, Female): 0.024
Average serum level, Mean ([2]; SDAT, ADAS 5-19, Male): 0.024
Serum level, Mean ([2]; SDAT, ADAS 20-39, Female): 0.023
Average serum level, Mean ([2]; SDAT, ADAS 20-39, Male): 0.025
Serum level, Mean ([2]; SDAT, ADAS 40-70, Female): 0.020
Average serum level, Mean ([2]; SDAT, ADAS 40-70, Male): 0.024
Serum level, Mean ([2]; SDAT_all, Female): 0.022
Average serum level, Mean ([2]; SDAT_all, Male): 0.025
Ratio, ADAS 5-19 to CN, Female ([2]; serum level ratio, females, ADAS 5-19 vs CN): 0.910
Ratio, ADAS 20-39 to 5-19, Female ([2]; serum level ratio, females, ADAS 20-39 vs ADAS 5-19): 0.955
Ratio, ADAS 20-39 to CN, Female ([2]; serum level ratio, females, ADAS 20-39 vs CN): 0.869
Ratio, ADAS 40-70 to 5-19, Female ([2]; serum level ratio, females, ADAS 40-70 vs ADAS 5-19): 0.837
Ratio, ADAS 40-70 to 20-39, Female ([2]; serum level ratio, females, ADAS 40-70 vs ADAS 20-39): 0.876
Ratio, ADAS 40-70 to CN, Female ([2]; serum level ratio, females, ADAS 40-70 vs CN): 0.761
Ratio, 50-59 vs. 40-49, Female ([2]; serum level ratio, females, age 50-59 vs 40-49): 0.815
Ratio, 60-69 vs. 40-49, Female ([2]; serum level ratio, females, age 60-69 vs 40-49): 0.731
Ratio, 70+ vs. 40-49, Female ([2]; serum level ratio, females, age 70+ vs 40-49): 0.805
Ratio, AD, All to CN, Female ([2]; serum level ratio, females, all AD vs cognitively normal): 0.843
Ratio, Autopsy AD vs. Control, Female ([2]; serum level ratio, females, autopsy AD vs control): 0.531
Ratio, 50-59 vs. 40-49, Male ([2]; serum level ratio, males, age 50-59 vs 40-49): 1.031
Ratio, 60-69 vs. 40-49, Male ([2]; serum level ratio, males, age 60-69 vs 40-49): 0.976
Ratio, 70+ vs. 40-49, Male ([2]; serum level ratio, males, age 70+ vs 40-49): 1.054
Mean serum level, Age Ctl, 30-39, Female ([2]; serum, females, age 30-39): 0.031
Mean serum level, Age Ctl, 40-49, Female ([2]; serum, females, age 40-49): 0.031
Mean serum level, Age Ctl, 50-59, Female ([2]; serum, females, age 50-59): 0.025
Mean serum level, Age Ctl, 60-69, Female ([2]; serum, females, age 60-69): 0.023
Mean serum level, Age Ctl, 70+, Female ([2]; serum, females, age 70+): 0.025
Mean serum level, Post Mortem SDAT, Female [2, 3]: 0.004
Mean serum level, Post Mortem Ctl, Female [2, 4]: 0.011
Mean serum level, Age Ctl, 30-39, Male ([2]; serum, males, age 30-39): 0.032
Mean serum level, Age Ctl, 40-49, Male ([2]; serum, males, age 40-49): 0.026
Mean serum level, Age Ctl, 50-59, Male ([2]; serum, males, age 50-59): 0.026
Mean serum level, Age Ctl, 60-69, Male ([2]; serum, males, age 60-69): 0.025
Mean serum level, Age Ctl, 70+, Male ([2]; serum, males, age 70+): 0.027
